Results are given in words; binding and its absence hold for the method and conditions named. Some entries that bind do so weakly or less than the wild type. Values belong to the molecule of their own block, whether it stands above or below them.
Tests used:
[1] = molecular target: T1, wheat germ agglutinin (WGA)-agarose (UniProt P10968); test: lectin affinity chromatography (carbohydrate-mediated)
T1 sequence (looked up): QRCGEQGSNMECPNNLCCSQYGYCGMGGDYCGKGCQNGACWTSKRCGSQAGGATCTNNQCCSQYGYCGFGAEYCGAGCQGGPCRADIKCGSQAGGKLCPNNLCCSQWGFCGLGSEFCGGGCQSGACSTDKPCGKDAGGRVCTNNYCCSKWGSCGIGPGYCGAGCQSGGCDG

Amino acid sequences for entries named in this document (tags omitted). A change or cut given only in a name is not applied to a line headed by its entry.
UniProt Q9NPF0: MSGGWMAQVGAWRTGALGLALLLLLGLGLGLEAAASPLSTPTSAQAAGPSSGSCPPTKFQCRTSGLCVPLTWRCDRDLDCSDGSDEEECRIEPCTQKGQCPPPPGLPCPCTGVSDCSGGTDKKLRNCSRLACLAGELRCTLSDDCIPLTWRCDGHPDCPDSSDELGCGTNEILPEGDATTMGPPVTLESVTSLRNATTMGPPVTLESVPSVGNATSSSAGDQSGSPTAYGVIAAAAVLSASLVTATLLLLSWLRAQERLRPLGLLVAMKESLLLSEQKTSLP

[2] = molecular target: T1, wheat germ agglutinin (WGA)-agarose; test: lectin binding (carbohydrate-mediated)
[3] = molecular target: recombinant extracellular fragment of TCblR produced in HEK 293 cells (human) (UniProt Q9NPF0); test: TC-Cbl binding assay of HEK 293 culture medium
[4] = molecular target: recombinant extracellular fragment of TCblR produced in HEK 293 cells (human) (UniProt Q9NPF0); test: purified fragment; assay not described

binding [1]: binds
Molecule: recombinant extracellular fragment of TCblR produced in HEK 293 cells (from UniProt Q9NPF0 32-247) (receptor)

binding [2]: binds
Molecule: recombinant extracellular (EXC) domain of TCblR produced in NSO myeloma cells, cleaved from the Fc fusion protein (from UniProt Q9NPF0 36-229) (receptor)

binding [3]: binds | binding [4]: binds
B1: holo-transcobalamin (recombinant human TC saturated with cobalamin) (ligand, UniProt P20062 19-427, looked up)
chain: EMCEIPEMDSHLVEKLGQHLLPWMDRLSLEHLNPSIYVGLRLSSLQAGTKEDLYLHSLKLGYQQCLLGSAFSEDDGDCQGKPSMGQLALYLLALRANCEFVRGHKGDRLVSQLKWFLEDEKRAIGHDHKGHPHTSYYQYGLGILALCLHQKRVHDSVVDKLLYAVEPFHQGHHSVDTAAMAGLAFTCLKRSNFNPGRRQRITMAIRTVREEILKAQTPEGHFGNVYSTPLALQFLMTSPMRGAELGTACLKARVALLASLQDGAFQNALMISQLLPVLNHKTYIDLIFPDCLAPRVMLEPAAETIPQTQEIISVTLQVLSLLPPYRQSISVLAGSTVEDVLKKAHELGGFTYETQASLSGPYLTSVMGKAAGEREFWQLLRDPNTPLLQGIADYRPKDGETIELRLVSW
notes: also called TC-Cbl; holo TC

— patent US8524454 (RESEARCH FOUNDATION OF STATE UNIVERSITY OF NEW YORK, dated 2013)
